Measurements published in paper PMC10896983.
Numbering of substitutions follows the chain as printed. Results are given in words; binding and its absence hold for the method and conditions named. Binding seen in cells or lysates may run through a third protein. Some entries that bind do so weakly or less than the wild type. Tags and fused reporters may be left off the sequences shown.

Columns and labels:
Assay in all cases: co-IP; HEK293 stably expressing HA-tagged iRhom2 variants as bait; cleared lysate on anti-HA magnetic beads for 90 min, five washes with lysis buffer (50 mM Tris, 2 mM CaCl2, 137 mM NaCl, 2 mM EDTA, 10 mM 1,10-phenanthroline, pH 7.5); endogenous prey by immunoblot and densitometry; in some panels cells treated with NH4Cl or bafilomycin for 8 h or 16 h
[1] = target: T1, human iRhom2 with deletion of the TOC site, ndTOC (Δ182-192) (HA tag) (human) (UniProt Q6PJF5)
T1 sequence: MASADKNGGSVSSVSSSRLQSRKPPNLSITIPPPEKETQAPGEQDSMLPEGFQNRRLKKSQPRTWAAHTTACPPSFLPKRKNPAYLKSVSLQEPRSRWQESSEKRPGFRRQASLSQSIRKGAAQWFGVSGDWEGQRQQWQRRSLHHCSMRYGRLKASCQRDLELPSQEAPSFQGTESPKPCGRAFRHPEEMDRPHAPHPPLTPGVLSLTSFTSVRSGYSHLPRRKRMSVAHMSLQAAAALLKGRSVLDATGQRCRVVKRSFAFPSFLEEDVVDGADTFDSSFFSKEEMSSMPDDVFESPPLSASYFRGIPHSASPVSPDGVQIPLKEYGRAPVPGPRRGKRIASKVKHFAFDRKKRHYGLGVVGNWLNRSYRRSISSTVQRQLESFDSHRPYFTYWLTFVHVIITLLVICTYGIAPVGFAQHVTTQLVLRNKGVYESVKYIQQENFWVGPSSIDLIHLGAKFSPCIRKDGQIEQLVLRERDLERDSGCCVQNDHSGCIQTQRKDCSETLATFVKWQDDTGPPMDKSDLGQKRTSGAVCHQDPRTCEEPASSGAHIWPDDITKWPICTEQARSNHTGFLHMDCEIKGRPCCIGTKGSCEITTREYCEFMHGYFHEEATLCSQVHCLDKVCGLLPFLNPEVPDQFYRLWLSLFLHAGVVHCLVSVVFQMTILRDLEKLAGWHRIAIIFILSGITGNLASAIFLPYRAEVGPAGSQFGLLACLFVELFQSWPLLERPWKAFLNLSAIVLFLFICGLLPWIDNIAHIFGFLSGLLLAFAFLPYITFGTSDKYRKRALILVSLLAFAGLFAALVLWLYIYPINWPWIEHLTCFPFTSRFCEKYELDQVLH

[2] = target: T2, human iRhom2 with the TOC mutation I186T (HA tag) (human) (UniProt Q6PJF5)
T2 sequence: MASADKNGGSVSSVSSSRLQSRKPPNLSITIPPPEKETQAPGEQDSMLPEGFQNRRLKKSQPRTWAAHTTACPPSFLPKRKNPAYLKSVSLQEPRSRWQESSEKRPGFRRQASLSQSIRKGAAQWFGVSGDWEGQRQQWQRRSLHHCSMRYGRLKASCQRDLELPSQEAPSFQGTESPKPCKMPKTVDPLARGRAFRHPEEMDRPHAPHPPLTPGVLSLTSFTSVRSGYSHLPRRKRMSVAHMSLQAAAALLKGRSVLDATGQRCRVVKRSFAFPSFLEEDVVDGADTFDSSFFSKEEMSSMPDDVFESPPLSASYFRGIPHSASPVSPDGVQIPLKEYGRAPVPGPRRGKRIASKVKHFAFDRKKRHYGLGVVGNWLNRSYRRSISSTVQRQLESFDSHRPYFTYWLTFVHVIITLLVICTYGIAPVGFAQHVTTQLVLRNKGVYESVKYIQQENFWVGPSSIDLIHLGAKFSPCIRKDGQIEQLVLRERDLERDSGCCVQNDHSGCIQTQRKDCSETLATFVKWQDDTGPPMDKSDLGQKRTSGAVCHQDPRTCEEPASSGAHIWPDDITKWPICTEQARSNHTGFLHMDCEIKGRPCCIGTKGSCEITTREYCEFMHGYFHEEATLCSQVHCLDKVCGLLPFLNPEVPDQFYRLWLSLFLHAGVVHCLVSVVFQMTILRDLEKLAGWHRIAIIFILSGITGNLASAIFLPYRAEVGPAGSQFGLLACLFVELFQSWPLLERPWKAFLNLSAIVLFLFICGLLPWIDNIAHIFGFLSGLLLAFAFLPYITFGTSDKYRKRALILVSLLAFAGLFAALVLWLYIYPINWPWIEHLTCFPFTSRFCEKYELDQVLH

[3] = target: T3, human wt-iRhom2 (HA tag) (human) (UniProt Q6PJF5)
T3 sequence: T2 sequence with T186I

binding [1]: binds
binding [2]: binds
binding [3]: binds
B1: FRMD8 (endogenous, HEK293) (protein, UniProt Q9BZ67 1-464)
chain: MDGTEGSAGQPGPAERSHRSSVSSVGARAADVLVYLADDTVVPLAVENLPSLSAHELHRAVREVLQLPDIALDVFALWLVSPLLEVQLKPKHQPYKLGRQWPELLLRFTSAPDDDVAMDEPFLQFRRNVFFPKRRELQIHDEEVLRLLYEEAKGNVLAARYPCDVEDCEALGALVCRVQLGPYQPGRPAACDLREKLDSFLPAHLCKRGQSLFAALRGRGARAGPGEQGLLNAYRQVQEVSSDGGCEAALGTHYRAYLLKCHELPFYGCAFFHGEVDKPAQGFLHRGGRKPVSVAISLEGVHVIDSREKHVLLGLRFQELSWDHTSPEEEEPILWLEFDGDSEGTPVNKLLKIYSKQAELMSSLIEYCIELSQAAEPAGPQDSATGSPSDPSSSLAPVQRPKLRRQGSVVSSRIQHLSTIDYVEDGKGIRRVKPKRTTSFFSRQLSLGQGSYTVVQPGDSLEQG
